Experimental data as given in article PMC8545693.
Results are given in words; binding and its absence hold for the method and conditions named. Binding seen in cells or lysates may run through a third protein. Some results given as binding are weak or reduced against the parent protein; the word gives no strength.

Protein sequences, listed by entry. Tags and fused reporters are not part of them.
UniProt P25490: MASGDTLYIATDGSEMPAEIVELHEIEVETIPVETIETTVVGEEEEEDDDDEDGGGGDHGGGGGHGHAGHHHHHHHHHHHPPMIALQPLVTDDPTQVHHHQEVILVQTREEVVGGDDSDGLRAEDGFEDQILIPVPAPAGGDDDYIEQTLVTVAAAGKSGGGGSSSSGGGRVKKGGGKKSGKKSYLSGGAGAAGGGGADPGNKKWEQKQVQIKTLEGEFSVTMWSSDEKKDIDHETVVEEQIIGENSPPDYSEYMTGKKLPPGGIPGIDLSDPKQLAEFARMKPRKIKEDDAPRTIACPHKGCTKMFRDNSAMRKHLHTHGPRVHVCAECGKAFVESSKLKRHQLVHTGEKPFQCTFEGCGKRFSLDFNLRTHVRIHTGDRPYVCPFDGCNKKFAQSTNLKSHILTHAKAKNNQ
UniProt Q92560: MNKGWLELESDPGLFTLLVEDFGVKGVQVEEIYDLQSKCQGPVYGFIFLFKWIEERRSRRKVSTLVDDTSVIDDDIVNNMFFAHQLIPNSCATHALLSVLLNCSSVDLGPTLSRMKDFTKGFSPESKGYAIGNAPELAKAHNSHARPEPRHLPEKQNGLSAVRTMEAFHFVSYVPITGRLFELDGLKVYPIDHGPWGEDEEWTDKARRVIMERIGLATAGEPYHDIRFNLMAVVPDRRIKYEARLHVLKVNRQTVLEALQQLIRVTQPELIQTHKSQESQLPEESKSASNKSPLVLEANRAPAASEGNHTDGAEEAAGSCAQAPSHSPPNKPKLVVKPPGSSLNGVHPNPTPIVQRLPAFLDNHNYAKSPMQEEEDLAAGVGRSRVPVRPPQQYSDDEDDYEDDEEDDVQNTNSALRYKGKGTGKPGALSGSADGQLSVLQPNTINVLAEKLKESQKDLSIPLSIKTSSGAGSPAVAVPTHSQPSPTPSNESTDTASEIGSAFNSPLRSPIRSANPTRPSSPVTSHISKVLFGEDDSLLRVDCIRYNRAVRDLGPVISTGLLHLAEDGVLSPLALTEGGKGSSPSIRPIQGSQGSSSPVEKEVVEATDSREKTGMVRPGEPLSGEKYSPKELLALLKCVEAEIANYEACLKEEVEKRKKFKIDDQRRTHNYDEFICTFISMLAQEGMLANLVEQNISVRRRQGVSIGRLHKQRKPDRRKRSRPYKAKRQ

Target: Ying Yang 1 (YY1) (human (endogenous in H2818, MPP89, Caki-1, Meso-8T)) (UniProt P25490)
Assay: co-IP; lysates in IP buffer (0.2% NP-40, 20 mM Tris-HCl pH 7.4, 150 mM NaCl, 10% glycerol) incubated overnight with anti-YY1 antibody or IgG, protein-A magnetic beads, immunoblot with anti-BAP1

Substance	binding
BRCA1-associated protein 1 (BAP1), endogenous (from UniProt Q92560 1-729)	binds
wt-BAP1 (lentivirally transduced full-length BAP1) (from UniProt Q92560 1-729)	binds
